We go through eleven molecules from publication PMC5327418.

Chains of the proteins cited; added tags and fusions are not shown.
UniProt P32569: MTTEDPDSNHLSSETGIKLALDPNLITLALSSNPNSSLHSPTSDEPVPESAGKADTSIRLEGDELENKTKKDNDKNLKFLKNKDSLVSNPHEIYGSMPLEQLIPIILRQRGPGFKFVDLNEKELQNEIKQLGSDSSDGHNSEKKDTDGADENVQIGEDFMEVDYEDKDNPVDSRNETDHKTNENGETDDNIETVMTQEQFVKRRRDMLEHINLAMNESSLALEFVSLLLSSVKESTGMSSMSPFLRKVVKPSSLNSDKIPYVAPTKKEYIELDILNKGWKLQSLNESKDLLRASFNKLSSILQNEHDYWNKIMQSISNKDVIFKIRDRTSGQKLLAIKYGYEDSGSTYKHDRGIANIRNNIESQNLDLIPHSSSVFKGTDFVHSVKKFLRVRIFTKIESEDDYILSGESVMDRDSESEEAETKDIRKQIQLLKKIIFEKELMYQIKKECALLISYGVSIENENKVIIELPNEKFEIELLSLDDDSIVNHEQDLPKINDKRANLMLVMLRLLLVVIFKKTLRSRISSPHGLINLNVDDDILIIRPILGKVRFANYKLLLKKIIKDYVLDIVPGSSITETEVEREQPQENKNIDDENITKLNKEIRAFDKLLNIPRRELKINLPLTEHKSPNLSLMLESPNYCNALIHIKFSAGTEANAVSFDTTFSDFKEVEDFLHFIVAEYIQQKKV

Results are given in words; binding and its absence hold for the method and conditions named. Binding seen in cells or lysates may run through a third protein. A yes stands for co-enrichment or nearness to the bait. Other partners may have been found.

The target in the assay is Med17-HA (S. cerevisiae (endogenous in S288c)) (UniProt P32569). The assay is described as follows: affinity purification with mass spectrometry; CoIP of Med17-HA on anti-HA magnetic beads from cryoground yeast lysate, 2 h at 4 °C; 20 mM HEPES pH 7.5, 300 mM KOAc, 10% glycerol, 0.01% NP-40, 6 mM MnSO4, 1 mM DTT, Cyanase nuclease; parallel control CoIP from 15N-labelled wild type cells, mixing after purification (MAP); GeLC-MS/MS, three biological replicates.

B1: Taf3 (protein, UniProt Q12297 1-353)
chain: MTTNNDFYFALLRISILQLLKAQGFDRARPSLVDVMTDLYAKFLSLLASEVSSIAQARCDQDDTIALQDITLALENLGIVKPTNVLDVYDENSELSSSRGMEKFKDWCIYSTQLTDARITALPTVELLQSEEKESDPLSAIPDYLNQLLQNKGAKQKLETKNRKTELIEDLINNNGLDDWIKLVIARQRINMIERASKKESQNVPALPHIAGYKSSILSRHHHTTITNEDRMPSAMTPRDEDALTEIQENPFVTSKLPIMRKENRLENITLSFEDEELESLGEVEGPNQKSQENNNEESFKENNKSLTESPHGDDRDISMFQFDSNVDTKWAEQEDMDSTFQRRTSLDYGGYF
For the molecule B1, the binding entry is “binds”.

B2: Taf10 (protein, UniProt Q12030 1-206)
chain: MDFEEDYDAEFDDNQEGQLETPFPSVAGADDGDNDNDDSVAENMKKKQKREAVVDDGSENAFGIPEFTRKDKTLEEILEMMDSTPPIIPDAVIDYYLTKNGFNVADVRVKRLLALATQKFVSDIAKDAYEYSRIRSSVAVSNANNSQARARQLLQGQQQPGVQQISQQQHQQNEKTTASKVVLTVNDLSSAVAEYGLNIGRPDFYR
Take B2: the binding result is listed as “binds”.

B3: Taf2 (protein, UniProt P23255 1-1407)
chain: MMSFSKNATPRAIVSESSTLHEMKFRNFRVAHEKISLDIDLATHCITGSATIIIIPLIQNLEYVTFDCKEMTIKDVLVENRRCDQFIHDDPLQTNLNGLTSQNVLYSDNSIEQSHFLRSKFASLNEYPETDSKSQLTIKIPSSIKISLEDANALSNYTPITPSIKTTPGFQESVFTPITLQIEYEIRNPKSGIKFDTVYADKPWLWNVYTSNGEICSSASYWVPCVDLLDEKSTWELEFSVPRLVKNIGTSKLIGQNGEESEKEKEDTPEHDEEEEGKPARVIKDEDKDSNLKNDEEGKNSKSKDAQDNDEEEEEGESDEEEEEGEEERRNIEESNNPSLRDVIVCCSEYSNIKELPHPIDLTKKKCIFQIINPVAPHHIGWAIGAFNSWSLPLISPPSVDAEDEVEEDKLRENVVDNVNDTMDDDIGSDIIPIQIFTLPTQETDELTVINSTVVCQKIIDFYSKEFGSYPFTCYSMVFLPTAPSKHMDFAALGICNTRLLYPLEVIDKAFSTTNELAWALANQWSCVNITPLDMNDYWCCLGIAGYMVFQVTKKLMGNNTYKYQLKRNSEAIVEQDFEKPPIGSTFTGSSRPISWSSKDLSFIQLKAPMILHILDRRMTKTERSFGMSRVLPKIFLQAMSGDLPNNSLTSSHFQHVCERVNKSKLENFFNEWVYGSGVPILRVTQRFNRKRMVIELGIRQVQDEELGHEKVVGEEGFFKSALDHLEHPDLNRTECFTGSMTIRIHEHDGTPYEHIVEIKDTFTKIDIQYNTKYRRLRKRGGGANDENGVENNNEEKPIVVDVNCLGNVYMSPEECSRFSLTEFNRTSESNELLKQNEAFEWIRIDSDLEWICQMHINQPDYMFSSQLRQDGDIEAQLEAIRYYEDVVVNGGVKSLVYSSILFRTAIDERYFFGIRLAACEALSKYVYDPDFTGGVKHLIQIFQILFCLEDSNIPKSNNFENPKLYFLQCNIPKYLAKVKNENGKCPKLVKQFLLDILVYNENGENKYSDDAYVRSLIENVVKVALNEYKDKAYMEKVKTQLLRYENLVNWLSSYESLIKTTIMYAKYKLHKVGAYDFTELTGMIMHTLTLGINNGDISRESFQNEFLMVLKIMLLEGGLKNKDALVLFTEILCFHEDSYIRDKSVDVLSECVNLVVMDGSLDTISDDIKSSVQSVHNEVKNIKSEDDIELFLSGHYVDDMKIKIEKIGRQNISGLIQICRDMFKGYSPLKILLWDVLNLPVLSLYQRKQIHDLVRVMYTLINSFVVRLETPRERRLVAKMNSNEEGKLDIVIKRESILKVHIKKEVTSTVEAPKKANKIKISLKGDKPVRKVEKQIVKPKVTSKQRKVKSHVNRMGSLPLRFVKIQQQPRVMVHLSSVPYSQFVQITKVTSRSFMVKIRTKNDAKN
Take B3: the binding entry is “binds”.

B4: Taf8 (protein, UniProt Q03750 1-510)
chain: MTSKTSESGTGTQSTIVQLRNLPDLTEISHLEIDAPVVEILKKTVLFQLNSLNICISNFALDELVNLVTVQMDGMFRNLHNLTLLQRRSQASQADLKLLLREFNLDAPSLYQQFQASEFIKSKHSTEYEKLMSWSSLAALPHNEEDEEDELNNIEEQQNEINVLLPPSNPLEKQIPSWLPNFPPDHTYKFTPEFNHPITDLKTIKKEIVKESQESEKALLNLNKSLSHISSASNTPQPPGLDDEDAIEQQLEIWGNALEERKPTITEKSFNENNIEQYAKYRVELARERVTKFEVNQLKRTKNPFLKISETLYLPESPHQSHKTIQKTIELQFRKSMTLFMHNLPKVQKLKKEKIRMAKEERAKSLKRRQEELISQRTKREQDEGHDLELLLNNEHARDAADDTTTPNALNNSTIVINTNAEDEDDDINLFGILGSSEDENEMSSMPAENLVAESEPPTMTAQDTTNTTPVAHNTTNIDATTSHSPHSTPNENAPTSPPADIATDHDITM
For B4, the binding result is given as “binds”.

B5: Taf5 (protein, UniProt P38129 1-798)
chain: MSQKQSTNQNQNGTHQPQPVKNQRTNNAAGANSGQQPQQQSQGQSQQQGRSNGPFSASDLNRIVLEYLNKKGYHRTEAMLRAESGRTLTPQNKQSPANTKTGKFPEQSSIPPNPGKTAKPISNPTNLSSKRDAEGGIVSSGRLEGLNAPENYIRAYSMLKNWVDSSLEIYKPELSYIMYPIFIYLFLNLVAKNPVYARRFFDRFSPDFKDFHGSEINRLFSVNSIDHIKENEVASAFQSHKYRITMSKTTLNLLLYFLNENESIGGSLIISVINQHLDPNIVESVTAREKLADGIKVLSDSENGNGKQNLEMNSVPVKLGPFPKDEEFVKEIETELKIKDDQEKQLNQQTAGDNYSGANNRTLLQEYKAMNNEKFKDNTGDDDKDKIKDKIAKDEEKKESELKVDGEKKDSNLSSPARDILPLPPKTALDLKLEIQKVKESRDAIKLDNLQLALPSVCMYTFQNTNKDMSCLDFSDDCRIAAAGFQDSYIKIWSLDGSSLNNPNIALNNNDKDEDPTCKTLVGHSGTVYSTSFSPDNKYLLSGSEDKTVRLWSMDTHTALVSYKGHNHPVWDVSFSPLGHYFATASHDQTARLWSCDHIYPLRIFAGHLNDVDCVSFHPNGCYVFTGSSDKTCRMWDVSTGDSVRLFLGHTAPVISIAVCPDGRWLSTGSEDGIINVWDIGTGKRLKQMRGHGKNAIYSLSYSKEGNVLISGGADHTVRVWDLKKATTEPSAEPDEPFIGYLGDVTASINQDIKEYGRRRTVIPTSDLVASFYTKKTPVFKVKFSRSNLALAGGAFRP
As to B5, the binding entry was “binds”.

B6: Taf7 (protein, UniProt Q05021 1-590)
chain: MAVIRIKKPRGPGEKDQPLEGEPKLKRIRIKTKVTDEDIKPKPKLKINLKKKKESADGKEKKNSLKLKLNLKKNEEPVKKIHKAPKLRLKPIRIPGEAYDSEASDIEDDPLIESGVILRILPDIQLEFVKNSLESGDYSGISIKWKNERHAVVTINDVMYGAILVDLPTVIEVNKSVDRKNLLKTFDVSQMLLCIRPIQEEEEVYALEAPDTEDLVVKHFEGIEDEIWENKETFLKGYNGAPLSDMEAKHLKEIALKGYDYKHGISPPLYNVRNRRFRRKMDPNEIDYVEKVVDMLLKQDKQAEEVSYDLVDKSELQARQERVSSWENFKEEPGEPLSRPALKKEEIHTIASAVGKQGAEEEGEEGMEEEEEEDLDLGAAFESEEEGSGAEGDKEQQQEEVGDEVDQDTGGEDDDDDDDGDIEAAGGESESDDEKDENRQHTELLADELNELETTLAHTKHKLSKATNPLLKSRFIDSIKKLEKEAELKRKQLQQTEDSVQKQHQHRSDAETANNVEEEEEEEEEEEEEDEVDEDEEDDEENDEDEDNVHEREHIQENKVVRELDEAPAEETLDQNDLDMMMLFGAEGDE
On to B6, for which the binding result is listed as “binds”.

B7: Taf4 (protein, UniProt P50105 1-388)
chain: MANSPKKPSDGTGVSASDTPKYQHTVPETKPAFNLSPGKASELSHSLPSPSQIKSTAHVSSTHNDAAGNTDDSVLPKNVSPTTNLRVESNGDTNNMFSSPAGLALPKKDDKKKNKGTSKADSKDGKASNSSGQNAQQQSDPNKMQDVLFSAGIDVREEEALLNSSINASKSQVQTNNVKIPNHLPFLHPEQVSNYMRKVGKEQNFNLTPTKNPEILDMMSSACENYMRDILTNAIVISRHRRKAVKINSGRRSEVSAALRAIALIQKKEEERRVKKRIALGLEKEDYENKIDSEETLHRASNVTAGLRAGSKKQYGWLTSSVNKPTSLGAKSSGKVASDITARGESGLKFREAREEPGIVMRDLLFALENRRNSVQTIISKGYAKIRD
With B7, the binding entry is “binds”.

B8: Taf13 (protein, UniProt P11747 1-167)
chain: MSRKLKKTNLFNKDVSSLLYAYGDVPQPLQATVQCLDELVSGYLVDVCTNAFHTAQNSQRNKLRLEDFKFALRKDPIKLGRAEELIATNKLITEAKKQFNETDNQNSLKRYREEDEEGDEMEEDEDEQQVTDDDEEAAGRNSAKQSTDSKATKIRKQGPKNLKKTKK
With B8, the binding result is given as “binds”.

B9: Taf6 (protein, UniProt P53040 1-516)
chain: MSTQQQSYTIWSPQDTVKDVAESLGLENINDDVLKALAMDVEYRILEIIEQAVKFKRHSKRDVLTTDDVSKALRVLNVEPLYGYYDGSEVNKAVSFSKVNTSGGQSVYYLDEEEVDFDRLINEPLPQVPRLPTFTTHWLAVEGVQPAIIQNPNLNDIRVSQPPFIRGAIVTALNDNSLQTPVTSTTASASVTDTGASQHLSNVKPGQNTEVKPLVKHVLSKELQIYFNKVISTLTAKSQADEAAQHMKQAALTSLRTDSGLHQLVPYFIQFIAEQITQNLSDLQLLTTILEMIYSLLSNTSIFLDPYIHSLMPSILTLLLAKKLGGSPKDDSPQEIHEFLERTNALRDFAASLLDYVLKKFPQAYKSLKPRVTRTLLKTFLDINRVFGTYYGCLKGVSVLEGESIRFFLGNLNNWARLVFNESGITLDNIEEHLNDDSNPTRTKFTKEETQILVDTVISALLVLKKDLPDLYEGKGEKVTDEDKEKLLERCGVTIGFHILKRDDAKELISAIFFGE
B9: the binding result is “binds”.

B10: Taf9 (protein, UniProt Q05027 1-157)
chain: MNGGGKNVLNKNSVGSVSEVGPDSTQEETPRDVRLLHLLLASQSIHQYEDQVPLQLMDFAHRYTQGVLKDALVYNDYAGSGNSAGSGLGVEDIRLAIAARTQYQFKPTAPKELMLQLAAERNKKALPQVMGTWGVRLPPEKYCLTAKEWDLEDPKSM
B10: the binding entry is “binds”.

B11: Taf11 (protein, UniProt Q04226 1-346)
chain: MTEPQGPLDTIPKVNYPPILTIANYFSTKQMIDQVISEDQDYVTWKLQNLRTGGTSINNQLNKYPKYKYQKTRINQQDPDSINKVPENLIFPQDILQQQTQNSNYEDTNTNEDENEKLAQDEQFKLLVTNLDKDQTNRFEVFHRTSLNKTQVKKLASTVANQTISENIRVFLQAVGKIYAGEIIELAMIVKNKWLTSQMCIEFDKRTKIGYKLKKYLKKLTFSIIENQQYKQDYQSDSVPEDEPDFYFDDEEVDKRETTLGNSLLQSKSLQQSDHNSQDLKLQLIEQYNKLVLQFNKLDVSIEKYNNSPLLPEHIREAWRLYRLQSDTLPNAYWRTQGEGQGSMFR
With B11, the binding entry is “binds”.
